From PMC4811540
Results are given in words; binding and its absence hold for the method and conditions named. In cells and extracts the contact can be indirect. A result given as binding can be weak or reduced; the word gives no strength. Sequences can lack the tags named with a protein.

Columns and labels:
Experiment in all cases: co-IP; HEK293 cells transfected with full length HA-FN or HA-FN-truncated constructs D1-5 along with Flag-TAK1, Flag-TAB1, Myc-TAB2 or Myc-TAB3; 48 h post-transfection
[1] = target: T1, TAK1-binding protein 1 (TAB1), Flag-tagged (UniProt Q15750)
T1 sequence: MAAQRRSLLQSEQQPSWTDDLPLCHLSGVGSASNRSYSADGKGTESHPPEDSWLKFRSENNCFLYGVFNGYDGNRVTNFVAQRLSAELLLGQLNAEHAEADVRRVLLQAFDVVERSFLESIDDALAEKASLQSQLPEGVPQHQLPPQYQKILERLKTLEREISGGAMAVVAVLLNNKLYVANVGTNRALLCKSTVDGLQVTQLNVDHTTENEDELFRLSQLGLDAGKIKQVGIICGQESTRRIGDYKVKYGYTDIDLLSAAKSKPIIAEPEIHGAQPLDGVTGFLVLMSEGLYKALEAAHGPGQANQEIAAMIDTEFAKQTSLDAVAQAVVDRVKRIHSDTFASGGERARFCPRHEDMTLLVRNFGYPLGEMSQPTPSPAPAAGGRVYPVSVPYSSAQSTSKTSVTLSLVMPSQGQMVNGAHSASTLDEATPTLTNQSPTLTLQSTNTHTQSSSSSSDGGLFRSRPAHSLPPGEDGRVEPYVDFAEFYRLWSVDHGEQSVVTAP

[2] = target: T2, TAK1-binding protein 2 (TAB2), Myc-tagged (UniProt Q9NYJ8)
T2 sequence: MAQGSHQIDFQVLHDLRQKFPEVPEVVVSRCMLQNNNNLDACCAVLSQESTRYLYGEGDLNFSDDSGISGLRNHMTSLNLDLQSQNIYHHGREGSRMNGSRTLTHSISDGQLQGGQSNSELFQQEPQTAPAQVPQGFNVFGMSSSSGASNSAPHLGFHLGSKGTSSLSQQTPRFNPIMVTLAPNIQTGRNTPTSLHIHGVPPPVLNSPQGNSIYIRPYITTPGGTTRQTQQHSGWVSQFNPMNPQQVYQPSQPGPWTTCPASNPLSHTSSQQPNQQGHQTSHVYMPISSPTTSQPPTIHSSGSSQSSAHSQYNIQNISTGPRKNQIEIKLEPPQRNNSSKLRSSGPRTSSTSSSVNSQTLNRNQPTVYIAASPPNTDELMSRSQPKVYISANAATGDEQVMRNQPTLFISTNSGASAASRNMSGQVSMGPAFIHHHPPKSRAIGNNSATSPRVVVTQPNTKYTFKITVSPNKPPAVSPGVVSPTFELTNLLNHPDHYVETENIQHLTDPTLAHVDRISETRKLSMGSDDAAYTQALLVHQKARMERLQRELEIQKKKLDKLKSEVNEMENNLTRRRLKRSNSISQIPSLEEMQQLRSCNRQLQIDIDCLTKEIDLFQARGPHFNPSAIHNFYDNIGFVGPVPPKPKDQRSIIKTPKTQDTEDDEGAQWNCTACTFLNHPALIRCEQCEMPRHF

[3] = target: T3, TAK1-binding protein 3 (TAB3), Myc-tagged (UniProt Q8N5C8)
T3 sequence: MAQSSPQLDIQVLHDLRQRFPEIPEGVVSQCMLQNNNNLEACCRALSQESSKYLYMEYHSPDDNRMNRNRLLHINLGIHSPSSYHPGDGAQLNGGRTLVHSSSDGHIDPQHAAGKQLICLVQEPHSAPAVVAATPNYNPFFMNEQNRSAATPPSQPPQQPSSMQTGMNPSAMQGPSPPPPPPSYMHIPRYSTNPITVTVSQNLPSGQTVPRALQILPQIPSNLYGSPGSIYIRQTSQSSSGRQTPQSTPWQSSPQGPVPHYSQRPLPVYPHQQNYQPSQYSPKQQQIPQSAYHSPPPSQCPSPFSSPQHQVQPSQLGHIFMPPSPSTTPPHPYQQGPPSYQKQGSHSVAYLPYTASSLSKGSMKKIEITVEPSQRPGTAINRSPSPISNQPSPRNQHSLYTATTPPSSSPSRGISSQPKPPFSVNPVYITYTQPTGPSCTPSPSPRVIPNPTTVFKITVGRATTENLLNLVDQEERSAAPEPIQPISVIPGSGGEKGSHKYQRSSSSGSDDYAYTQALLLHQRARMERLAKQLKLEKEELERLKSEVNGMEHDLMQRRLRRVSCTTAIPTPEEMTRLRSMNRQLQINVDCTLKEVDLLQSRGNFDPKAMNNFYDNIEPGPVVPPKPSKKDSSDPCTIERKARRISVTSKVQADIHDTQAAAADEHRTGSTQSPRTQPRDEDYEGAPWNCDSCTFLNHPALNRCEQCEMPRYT

[4] = target: T4, Transforming growth factor β-activated protein kinase 1 (TAK1), Flag-tagged (UniProt O43318)
T4 sequence: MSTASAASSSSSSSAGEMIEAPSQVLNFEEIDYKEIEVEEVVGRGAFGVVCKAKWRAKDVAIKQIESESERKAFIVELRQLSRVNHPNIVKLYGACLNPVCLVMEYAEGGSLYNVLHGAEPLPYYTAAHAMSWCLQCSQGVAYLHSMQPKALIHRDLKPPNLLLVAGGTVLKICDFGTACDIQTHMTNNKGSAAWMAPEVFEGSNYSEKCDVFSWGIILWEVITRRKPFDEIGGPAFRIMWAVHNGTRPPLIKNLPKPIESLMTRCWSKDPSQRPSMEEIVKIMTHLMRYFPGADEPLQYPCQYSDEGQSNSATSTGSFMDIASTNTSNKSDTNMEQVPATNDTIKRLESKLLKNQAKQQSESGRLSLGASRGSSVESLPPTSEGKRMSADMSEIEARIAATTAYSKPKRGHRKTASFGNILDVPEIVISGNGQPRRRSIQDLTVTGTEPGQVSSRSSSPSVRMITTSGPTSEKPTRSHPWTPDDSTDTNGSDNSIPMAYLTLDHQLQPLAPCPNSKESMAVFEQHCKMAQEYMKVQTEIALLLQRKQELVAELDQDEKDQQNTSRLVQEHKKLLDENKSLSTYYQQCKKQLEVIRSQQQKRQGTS

Measured: binding

HA-FN truncated segment D5 (C-terminal domain) (domain or fragment)
binds: all assays above

Full length HA-FN (fibronectin in PKH3-3XHA)
binds: all assays above
